No constants are given. Whether binding was seen depends on the method and setting. In cells and extracts the contact can be indirect. Some binding calls cover weakened binding; strength is not graded here.
Target: T1, B-Cell Chronic Lymphocytic Leukaemia/Lymphoma 3 (BCL-3) protein (human (endogenous in SW1463)) (UniProt P20749)
T1 sequence: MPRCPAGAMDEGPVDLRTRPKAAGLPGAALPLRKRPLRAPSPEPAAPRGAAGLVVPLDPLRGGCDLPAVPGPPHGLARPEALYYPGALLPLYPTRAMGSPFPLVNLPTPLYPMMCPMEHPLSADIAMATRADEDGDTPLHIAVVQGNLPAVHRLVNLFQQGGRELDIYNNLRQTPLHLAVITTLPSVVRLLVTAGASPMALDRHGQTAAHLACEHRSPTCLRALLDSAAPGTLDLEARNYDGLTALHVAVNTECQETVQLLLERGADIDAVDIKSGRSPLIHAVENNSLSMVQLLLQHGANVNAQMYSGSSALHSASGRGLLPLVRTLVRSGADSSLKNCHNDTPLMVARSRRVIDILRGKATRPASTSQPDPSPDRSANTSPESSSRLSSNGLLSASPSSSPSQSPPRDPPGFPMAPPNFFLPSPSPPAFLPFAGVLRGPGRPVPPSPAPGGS
Test: co-IP

Chains of the proteins cited; added tags and fusions are not shown.
UniProt P35222: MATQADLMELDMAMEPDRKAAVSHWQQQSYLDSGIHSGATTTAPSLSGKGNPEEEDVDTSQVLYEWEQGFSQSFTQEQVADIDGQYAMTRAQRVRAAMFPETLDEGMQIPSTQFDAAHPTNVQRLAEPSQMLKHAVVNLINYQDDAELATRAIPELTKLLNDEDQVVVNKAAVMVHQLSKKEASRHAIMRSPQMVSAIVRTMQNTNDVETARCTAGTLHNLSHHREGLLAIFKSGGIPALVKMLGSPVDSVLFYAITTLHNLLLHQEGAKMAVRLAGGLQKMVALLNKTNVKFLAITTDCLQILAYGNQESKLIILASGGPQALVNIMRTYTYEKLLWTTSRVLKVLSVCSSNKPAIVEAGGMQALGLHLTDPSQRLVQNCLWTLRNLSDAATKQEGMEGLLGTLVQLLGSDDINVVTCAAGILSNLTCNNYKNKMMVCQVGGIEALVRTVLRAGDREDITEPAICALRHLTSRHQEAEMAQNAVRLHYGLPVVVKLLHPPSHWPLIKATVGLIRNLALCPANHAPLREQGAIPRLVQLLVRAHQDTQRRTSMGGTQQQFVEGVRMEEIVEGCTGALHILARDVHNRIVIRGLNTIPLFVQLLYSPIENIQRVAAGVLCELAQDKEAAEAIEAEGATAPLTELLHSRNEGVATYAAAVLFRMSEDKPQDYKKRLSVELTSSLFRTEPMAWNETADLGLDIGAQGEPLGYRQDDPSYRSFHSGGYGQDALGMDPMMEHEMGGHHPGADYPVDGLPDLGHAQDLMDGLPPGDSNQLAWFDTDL

binding: binds
Substance: β-catenin (from UniProt P35222 1-781)
